This is an account of results in paper PMC3771913.

The target of this test is T1, Dorsal (Drosophila (endogenous in wild-type ovaries)) (UniProt P15330).
T1 sequence: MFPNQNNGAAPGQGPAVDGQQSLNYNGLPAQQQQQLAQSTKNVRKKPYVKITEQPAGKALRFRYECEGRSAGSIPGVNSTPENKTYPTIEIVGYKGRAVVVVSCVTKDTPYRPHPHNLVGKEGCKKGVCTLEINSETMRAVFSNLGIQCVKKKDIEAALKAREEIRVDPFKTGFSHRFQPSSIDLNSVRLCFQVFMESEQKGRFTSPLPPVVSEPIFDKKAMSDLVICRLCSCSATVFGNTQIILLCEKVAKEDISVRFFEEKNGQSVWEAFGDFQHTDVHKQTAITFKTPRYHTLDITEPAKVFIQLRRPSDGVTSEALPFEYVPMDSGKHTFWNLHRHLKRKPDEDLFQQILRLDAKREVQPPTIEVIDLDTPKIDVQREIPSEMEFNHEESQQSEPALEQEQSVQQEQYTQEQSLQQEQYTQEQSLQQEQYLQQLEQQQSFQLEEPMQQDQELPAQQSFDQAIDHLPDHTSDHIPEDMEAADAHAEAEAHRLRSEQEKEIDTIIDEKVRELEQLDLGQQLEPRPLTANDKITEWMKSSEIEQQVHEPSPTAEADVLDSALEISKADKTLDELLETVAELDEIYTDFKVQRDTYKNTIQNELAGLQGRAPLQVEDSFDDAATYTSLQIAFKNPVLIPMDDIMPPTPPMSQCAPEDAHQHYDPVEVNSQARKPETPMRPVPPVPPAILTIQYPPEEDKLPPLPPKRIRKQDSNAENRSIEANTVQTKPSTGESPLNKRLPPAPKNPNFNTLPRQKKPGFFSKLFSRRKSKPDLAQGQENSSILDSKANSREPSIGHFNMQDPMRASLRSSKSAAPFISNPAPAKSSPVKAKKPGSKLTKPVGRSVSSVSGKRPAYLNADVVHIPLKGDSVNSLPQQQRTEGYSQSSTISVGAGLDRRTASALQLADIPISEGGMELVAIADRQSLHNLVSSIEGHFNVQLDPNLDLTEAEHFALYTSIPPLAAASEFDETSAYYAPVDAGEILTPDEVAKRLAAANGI
Description: co-IP; wild-type ovary extracts in IP buffer (20 mM Hepes pH 7.5, 150 mM NaCl, 0.5% Triton X-100) with RNase A; antibodies cross-linked to Protein G Plus/Protein A-agarose beads, overnight at 4°C; Western blot.

No constants are given. Whether binding was seen depends on the method and setting. In cells and extracts the contact can be indirect.

Consider Rasputin (Rin), for which the binding result is given as “no binding”.

As to Orb (oo18 RNA-binding), the binding entry was “no binding”.
